# Assay results from article PMC11655551.
# Chains of the proteins cited; added tags and fusions are not shown.
# UniProt Q13620: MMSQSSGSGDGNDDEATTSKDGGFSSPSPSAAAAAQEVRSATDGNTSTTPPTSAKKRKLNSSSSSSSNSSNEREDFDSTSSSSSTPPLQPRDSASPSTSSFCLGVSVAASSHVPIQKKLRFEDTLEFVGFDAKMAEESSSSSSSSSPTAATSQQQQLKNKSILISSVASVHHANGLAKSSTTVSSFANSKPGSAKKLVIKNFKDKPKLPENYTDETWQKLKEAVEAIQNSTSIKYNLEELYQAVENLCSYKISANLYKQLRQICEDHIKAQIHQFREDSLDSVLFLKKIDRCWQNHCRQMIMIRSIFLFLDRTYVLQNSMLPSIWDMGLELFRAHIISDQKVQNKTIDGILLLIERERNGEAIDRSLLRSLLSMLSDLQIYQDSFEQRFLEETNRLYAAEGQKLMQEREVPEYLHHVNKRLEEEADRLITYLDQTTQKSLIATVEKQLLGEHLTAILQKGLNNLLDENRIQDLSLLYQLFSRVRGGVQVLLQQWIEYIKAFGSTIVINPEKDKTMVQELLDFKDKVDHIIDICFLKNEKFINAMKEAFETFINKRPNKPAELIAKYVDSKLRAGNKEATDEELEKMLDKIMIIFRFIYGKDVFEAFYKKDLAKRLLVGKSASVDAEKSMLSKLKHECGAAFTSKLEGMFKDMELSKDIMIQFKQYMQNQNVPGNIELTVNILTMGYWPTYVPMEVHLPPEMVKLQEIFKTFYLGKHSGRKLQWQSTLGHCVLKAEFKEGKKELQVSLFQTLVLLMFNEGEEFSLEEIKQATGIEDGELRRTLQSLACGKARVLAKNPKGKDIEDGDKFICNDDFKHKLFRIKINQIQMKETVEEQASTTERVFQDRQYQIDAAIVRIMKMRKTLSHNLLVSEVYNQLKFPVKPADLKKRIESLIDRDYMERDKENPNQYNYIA
# UniProt Q16531: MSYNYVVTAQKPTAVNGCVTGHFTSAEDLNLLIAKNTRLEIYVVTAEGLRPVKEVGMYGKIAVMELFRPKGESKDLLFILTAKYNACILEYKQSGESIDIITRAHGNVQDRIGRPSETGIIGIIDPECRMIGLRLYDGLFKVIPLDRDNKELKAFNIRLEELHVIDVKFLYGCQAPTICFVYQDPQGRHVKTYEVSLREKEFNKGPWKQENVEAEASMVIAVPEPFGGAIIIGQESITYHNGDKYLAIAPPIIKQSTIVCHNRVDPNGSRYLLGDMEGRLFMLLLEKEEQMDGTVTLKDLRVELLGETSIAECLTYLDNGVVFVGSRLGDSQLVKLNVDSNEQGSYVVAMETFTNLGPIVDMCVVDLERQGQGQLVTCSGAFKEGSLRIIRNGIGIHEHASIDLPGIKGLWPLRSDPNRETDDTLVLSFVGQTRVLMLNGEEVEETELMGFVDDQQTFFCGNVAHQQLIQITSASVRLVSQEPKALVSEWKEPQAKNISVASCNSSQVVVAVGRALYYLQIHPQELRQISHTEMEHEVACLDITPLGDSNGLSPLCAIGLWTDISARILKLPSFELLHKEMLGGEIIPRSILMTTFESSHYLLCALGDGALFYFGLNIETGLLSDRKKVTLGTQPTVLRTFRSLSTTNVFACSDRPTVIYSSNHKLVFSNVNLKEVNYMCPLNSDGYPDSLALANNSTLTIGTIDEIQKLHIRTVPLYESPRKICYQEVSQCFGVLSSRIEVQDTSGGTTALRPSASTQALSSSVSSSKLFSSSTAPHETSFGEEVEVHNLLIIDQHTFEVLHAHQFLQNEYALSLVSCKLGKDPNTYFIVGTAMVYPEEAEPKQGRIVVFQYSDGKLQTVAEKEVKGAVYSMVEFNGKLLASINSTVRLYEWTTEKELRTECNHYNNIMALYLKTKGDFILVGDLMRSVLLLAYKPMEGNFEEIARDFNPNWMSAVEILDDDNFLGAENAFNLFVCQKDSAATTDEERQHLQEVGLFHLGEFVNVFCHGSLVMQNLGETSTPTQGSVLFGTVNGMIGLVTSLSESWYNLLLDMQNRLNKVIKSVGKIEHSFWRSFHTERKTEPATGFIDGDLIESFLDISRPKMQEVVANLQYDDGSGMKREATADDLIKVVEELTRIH
# Results are given in words; binding and its absence hold for the method and conditions named. Binding seen in cells or lysates may run through a third protein. Some results given as binding are weak or reduced against the parent protein; the word gives no strength.
# Legend:
# [1] = biological target: Cullin 4B (human (endogenous in HK2)) (UniProt Q13620); test: co-IP; HK2 cells treated with cisplatin and MG132; lysis buffer 150 mM NaCl, 50 mM Tris-HCl (pH7.4), 1% Triton X-100; supernatant incubated with CUL4B antibody, p53 antibody or control IgG at 4 °C overnight; Protein A/G magnetic beads; washed 5 times with PBST; Western blotting
# [2] = biological target: p53 (human (endogenous in HK2)) (UniProt P04637); test: as above
binding [1],binding [2],Substance
binds,,DDB1 (from UniProt Q16531 1-1140)
,binds,Cullin 4B (from UniProt Q13620 1-913)
